Measurements taken from the supplement of paper PMC10849652.
The other results are listed elsewhere or left out.

By UniProt entry, the sequences of proteins in these tests, tags left out. Where a name states a change or a piece, a line headed by the entry shows the natural chain unless it says otherwise.
UniProt O75592: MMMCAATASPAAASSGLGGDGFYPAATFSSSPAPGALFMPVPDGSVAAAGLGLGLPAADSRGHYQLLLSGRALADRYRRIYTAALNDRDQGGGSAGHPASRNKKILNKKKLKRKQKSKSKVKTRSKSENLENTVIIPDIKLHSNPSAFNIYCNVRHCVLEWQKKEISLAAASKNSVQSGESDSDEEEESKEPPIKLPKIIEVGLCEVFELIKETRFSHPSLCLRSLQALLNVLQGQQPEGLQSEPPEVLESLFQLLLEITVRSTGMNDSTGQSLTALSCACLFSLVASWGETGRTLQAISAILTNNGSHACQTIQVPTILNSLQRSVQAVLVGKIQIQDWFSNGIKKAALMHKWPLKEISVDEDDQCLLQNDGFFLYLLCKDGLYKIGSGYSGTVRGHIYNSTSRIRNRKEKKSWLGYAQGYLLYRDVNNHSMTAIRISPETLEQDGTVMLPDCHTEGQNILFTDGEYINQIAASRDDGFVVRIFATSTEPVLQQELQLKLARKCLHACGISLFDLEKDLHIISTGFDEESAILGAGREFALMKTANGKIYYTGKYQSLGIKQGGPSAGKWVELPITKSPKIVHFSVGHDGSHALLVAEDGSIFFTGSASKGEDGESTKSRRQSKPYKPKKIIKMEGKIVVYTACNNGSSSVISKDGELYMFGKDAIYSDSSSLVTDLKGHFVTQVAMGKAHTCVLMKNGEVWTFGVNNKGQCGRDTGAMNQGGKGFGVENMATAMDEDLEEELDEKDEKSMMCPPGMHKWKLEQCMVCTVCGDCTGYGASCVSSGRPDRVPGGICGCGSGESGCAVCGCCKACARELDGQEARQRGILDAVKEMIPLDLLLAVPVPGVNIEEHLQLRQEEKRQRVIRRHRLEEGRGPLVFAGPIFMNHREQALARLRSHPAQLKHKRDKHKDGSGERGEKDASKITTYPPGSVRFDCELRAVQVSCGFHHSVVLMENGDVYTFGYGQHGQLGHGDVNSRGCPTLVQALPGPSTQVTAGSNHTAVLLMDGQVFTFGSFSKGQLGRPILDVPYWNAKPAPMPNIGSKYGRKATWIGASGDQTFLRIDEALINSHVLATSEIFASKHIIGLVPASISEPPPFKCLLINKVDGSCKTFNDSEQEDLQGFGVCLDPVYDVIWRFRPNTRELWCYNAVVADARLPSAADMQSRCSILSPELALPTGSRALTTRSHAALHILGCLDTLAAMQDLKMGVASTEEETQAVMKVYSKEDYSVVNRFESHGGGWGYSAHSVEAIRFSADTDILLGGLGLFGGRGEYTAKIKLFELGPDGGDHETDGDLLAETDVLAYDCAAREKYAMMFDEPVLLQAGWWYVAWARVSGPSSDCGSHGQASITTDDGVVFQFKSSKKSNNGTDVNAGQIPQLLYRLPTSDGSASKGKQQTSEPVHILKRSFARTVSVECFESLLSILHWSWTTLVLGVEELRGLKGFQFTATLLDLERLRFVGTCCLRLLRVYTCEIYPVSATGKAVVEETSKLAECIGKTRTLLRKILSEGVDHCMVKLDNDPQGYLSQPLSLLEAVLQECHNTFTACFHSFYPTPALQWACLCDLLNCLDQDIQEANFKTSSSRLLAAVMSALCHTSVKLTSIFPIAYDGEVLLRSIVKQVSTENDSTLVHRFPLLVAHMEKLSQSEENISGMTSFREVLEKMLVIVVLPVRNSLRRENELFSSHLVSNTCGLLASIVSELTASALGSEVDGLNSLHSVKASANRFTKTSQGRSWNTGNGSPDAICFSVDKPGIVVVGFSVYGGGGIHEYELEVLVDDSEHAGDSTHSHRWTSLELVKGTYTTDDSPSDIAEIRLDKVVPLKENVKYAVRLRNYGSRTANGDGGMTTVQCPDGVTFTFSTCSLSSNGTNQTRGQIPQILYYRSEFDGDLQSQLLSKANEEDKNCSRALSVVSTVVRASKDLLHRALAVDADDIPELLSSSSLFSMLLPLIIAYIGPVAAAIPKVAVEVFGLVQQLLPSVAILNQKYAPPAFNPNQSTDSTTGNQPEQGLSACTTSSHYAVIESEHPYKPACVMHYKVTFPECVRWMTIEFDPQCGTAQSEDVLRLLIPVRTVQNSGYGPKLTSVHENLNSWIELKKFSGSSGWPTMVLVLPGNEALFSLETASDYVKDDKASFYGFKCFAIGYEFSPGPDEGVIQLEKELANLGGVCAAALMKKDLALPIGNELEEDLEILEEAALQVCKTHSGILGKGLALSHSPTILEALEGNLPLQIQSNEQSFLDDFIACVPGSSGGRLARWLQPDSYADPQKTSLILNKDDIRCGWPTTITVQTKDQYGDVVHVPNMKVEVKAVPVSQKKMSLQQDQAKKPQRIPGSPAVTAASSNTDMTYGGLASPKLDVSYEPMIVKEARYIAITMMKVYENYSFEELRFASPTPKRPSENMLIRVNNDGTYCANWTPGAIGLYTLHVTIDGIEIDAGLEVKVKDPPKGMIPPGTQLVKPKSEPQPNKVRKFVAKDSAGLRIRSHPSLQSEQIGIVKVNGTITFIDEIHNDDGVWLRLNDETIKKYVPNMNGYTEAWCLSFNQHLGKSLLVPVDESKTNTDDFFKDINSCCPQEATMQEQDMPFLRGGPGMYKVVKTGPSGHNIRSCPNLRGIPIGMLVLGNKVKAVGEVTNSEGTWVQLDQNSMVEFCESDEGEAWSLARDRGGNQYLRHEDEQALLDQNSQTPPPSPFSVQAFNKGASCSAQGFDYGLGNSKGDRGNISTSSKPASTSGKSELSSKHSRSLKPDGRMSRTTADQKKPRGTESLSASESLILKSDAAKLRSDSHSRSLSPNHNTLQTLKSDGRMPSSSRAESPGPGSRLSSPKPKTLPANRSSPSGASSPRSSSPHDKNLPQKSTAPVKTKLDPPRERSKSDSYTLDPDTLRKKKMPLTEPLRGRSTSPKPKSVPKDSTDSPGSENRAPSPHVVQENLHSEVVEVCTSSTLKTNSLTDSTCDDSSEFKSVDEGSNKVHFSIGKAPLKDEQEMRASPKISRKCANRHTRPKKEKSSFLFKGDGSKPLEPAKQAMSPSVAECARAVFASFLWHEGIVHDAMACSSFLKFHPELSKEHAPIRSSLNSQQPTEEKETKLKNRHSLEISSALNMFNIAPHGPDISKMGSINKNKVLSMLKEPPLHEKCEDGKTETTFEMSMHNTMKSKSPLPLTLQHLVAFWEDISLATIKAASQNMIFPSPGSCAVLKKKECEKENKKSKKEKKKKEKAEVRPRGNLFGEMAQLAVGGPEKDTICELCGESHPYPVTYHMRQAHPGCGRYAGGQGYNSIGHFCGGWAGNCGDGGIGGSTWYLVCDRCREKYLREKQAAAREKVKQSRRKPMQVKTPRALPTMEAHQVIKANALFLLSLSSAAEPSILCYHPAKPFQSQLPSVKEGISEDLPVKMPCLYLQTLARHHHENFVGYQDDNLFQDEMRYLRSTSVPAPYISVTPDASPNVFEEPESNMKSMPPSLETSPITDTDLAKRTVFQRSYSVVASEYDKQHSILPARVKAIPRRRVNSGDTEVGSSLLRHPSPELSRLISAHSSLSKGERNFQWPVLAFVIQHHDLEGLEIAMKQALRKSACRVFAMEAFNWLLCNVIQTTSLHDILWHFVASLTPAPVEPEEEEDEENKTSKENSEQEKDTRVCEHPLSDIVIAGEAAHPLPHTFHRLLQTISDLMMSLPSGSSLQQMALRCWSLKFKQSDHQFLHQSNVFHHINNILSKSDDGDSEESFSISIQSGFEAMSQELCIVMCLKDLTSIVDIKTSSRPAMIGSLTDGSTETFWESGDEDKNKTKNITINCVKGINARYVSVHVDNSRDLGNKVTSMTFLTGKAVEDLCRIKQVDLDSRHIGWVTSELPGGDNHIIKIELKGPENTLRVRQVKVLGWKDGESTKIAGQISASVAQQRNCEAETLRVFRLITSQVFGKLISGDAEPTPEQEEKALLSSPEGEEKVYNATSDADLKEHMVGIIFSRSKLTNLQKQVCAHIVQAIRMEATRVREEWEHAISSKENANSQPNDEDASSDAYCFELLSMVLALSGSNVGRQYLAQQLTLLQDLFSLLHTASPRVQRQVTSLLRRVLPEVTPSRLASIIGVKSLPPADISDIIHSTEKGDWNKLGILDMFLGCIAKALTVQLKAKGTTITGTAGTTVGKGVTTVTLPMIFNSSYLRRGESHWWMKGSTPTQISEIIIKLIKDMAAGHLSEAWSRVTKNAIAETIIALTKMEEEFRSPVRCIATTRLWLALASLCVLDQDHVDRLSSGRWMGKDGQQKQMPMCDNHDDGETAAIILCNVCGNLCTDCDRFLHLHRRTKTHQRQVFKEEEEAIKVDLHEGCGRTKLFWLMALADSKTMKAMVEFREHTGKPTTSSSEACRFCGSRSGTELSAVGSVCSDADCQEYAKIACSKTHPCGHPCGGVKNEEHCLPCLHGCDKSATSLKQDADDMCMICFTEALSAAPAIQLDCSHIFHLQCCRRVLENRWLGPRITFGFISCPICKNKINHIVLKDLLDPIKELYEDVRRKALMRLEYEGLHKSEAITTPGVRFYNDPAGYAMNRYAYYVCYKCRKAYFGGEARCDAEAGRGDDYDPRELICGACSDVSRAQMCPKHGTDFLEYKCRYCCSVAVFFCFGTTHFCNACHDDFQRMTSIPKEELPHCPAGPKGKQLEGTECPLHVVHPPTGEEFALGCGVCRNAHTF
UniProt Q969V6: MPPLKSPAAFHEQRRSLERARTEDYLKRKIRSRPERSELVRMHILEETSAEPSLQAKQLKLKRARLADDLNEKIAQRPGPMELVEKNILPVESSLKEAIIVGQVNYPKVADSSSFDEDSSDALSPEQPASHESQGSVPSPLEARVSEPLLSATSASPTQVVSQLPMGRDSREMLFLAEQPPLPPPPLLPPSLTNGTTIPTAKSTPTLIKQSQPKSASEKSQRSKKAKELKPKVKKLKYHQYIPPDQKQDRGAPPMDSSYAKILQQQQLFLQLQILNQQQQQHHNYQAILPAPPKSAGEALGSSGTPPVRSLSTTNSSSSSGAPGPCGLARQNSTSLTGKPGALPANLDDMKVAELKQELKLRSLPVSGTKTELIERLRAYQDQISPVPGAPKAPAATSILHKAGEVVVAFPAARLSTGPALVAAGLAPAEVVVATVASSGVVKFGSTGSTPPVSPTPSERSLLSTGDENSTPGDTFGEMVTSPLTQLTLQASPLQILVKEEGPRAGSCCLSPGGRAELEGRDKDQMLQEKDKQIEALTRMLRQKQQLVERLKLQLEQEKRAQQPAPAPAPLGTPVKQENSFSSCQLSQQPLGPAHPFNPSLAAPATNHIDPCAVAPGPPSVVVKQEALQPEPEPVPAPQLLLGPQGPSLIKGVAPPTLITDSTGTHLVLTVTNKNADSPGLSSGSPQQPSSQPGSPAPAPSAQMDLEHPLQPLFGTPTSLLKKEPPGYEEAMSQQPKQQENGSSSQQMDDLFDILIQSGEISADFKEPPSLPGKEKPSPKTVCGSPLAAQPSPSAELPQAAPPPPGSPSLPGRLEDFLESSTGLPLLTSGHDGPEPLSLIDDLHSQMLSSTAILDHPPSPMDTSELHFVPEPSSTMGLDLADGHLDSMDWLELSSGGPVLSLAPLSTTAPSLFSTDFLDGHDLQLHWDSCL
UniProt Q86UE4: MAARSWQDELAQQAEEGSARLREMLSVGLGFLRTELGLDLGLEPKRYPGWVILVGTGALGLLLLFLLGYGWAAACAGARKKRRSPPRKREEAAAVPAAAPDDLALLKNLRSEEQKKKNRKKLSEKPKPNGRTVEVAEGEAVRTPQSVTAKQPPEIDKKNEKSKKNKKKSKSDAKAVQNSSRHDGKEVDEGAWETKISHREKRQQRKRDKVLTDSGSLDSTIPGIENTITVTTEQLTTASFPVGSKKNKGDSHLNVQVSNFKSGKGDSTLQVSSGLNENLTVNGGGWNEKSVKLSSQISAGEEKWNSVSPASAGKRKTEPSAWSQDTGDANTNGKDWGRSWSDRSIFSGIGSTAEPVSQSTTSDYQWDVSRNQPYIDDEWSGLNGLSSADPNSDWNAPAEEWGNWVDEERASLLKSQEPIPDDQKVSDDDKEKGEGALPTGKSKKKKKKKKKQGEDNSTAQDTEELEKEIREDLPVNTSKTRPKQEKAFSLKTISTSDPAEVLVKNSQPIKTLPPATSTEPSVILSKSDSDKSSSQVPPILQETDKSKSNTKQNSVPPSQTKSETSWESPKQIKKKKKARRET
UniProt Q96DR8: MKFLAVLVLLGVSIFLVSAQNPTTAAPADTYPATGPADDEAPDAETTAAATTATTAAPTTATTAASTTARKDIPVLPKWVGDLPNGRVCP

Legend:
Assay in all cases: log2 fold change, soluble protein after heating vs DMSO (PISA); higher = thermal stabilisation; K562 cells, 10 uM, 30 min; active = over 0.2 and 3.5 SD of the protein, either way, in both replicates (recomputed)
[1] = compound: CS(=O)(=O)c1ccc(-c2cnc(N)c(C(=O)Nc3ccccc3)n2)cc1
Procedure, shortened: (§1)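 Soluble protein was defined as the supernatant after 21,000xg for 90 min. It came from K562 cells at 2×10^6 cells/mL given 10 μM compound for 30 min, heated in aliquots for 3 min across 48°C-58°C, pooled, and extracted in PBS with 0.5% NP-40 at 4°C, and was quantified by TMTpro 16plex LC-MS/MS with equalised channel sums. Thermal stability against control samples, from duplicates, is reported as log2 fold change.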

crizotinib = compound: C[C@@H](Oc1cc(-c2cnn(C3CCNCC3)c2)cnc1N)c1c(Cl)ccc(F)c1Cl [crizotinib]
Procedure, shortened: as §1

[2] = compound: C[C@@H]1COCCN1C2=NC(=NC(=C2)C3(CC3)S(=O)(=O)C)C4=C5C=CNC5=CC=C4
Procedure, shortened: as §1

[3] = compound: C[C@H](C1=CC=C(C=C1)C(=O)NC2=C3C=CNC3=NC=C2)N
Procedure, shortened: as §1

duvelisib = compound: C[C@H](Nc1ncnc2nc[nH]c12)c1cc2cccc(Cl)c2c(=O)n1-c1ccccc1 [duvelisib]
Procedure, shortened: as §1

gandotinib = compound: Cc1cc(Nc2cc(CN3CCOCC3)c3nc(C)c(Cc4ccc(Cl)cc4F)n3n2)n[nH]1 [gandotinib]
Procedure, shortened: as §1

tozasertib = compound: Cc1cc(Nc2cc(N3CCN(C)CC3)nc(Sc3ccc(NC(=O)C4CC4)cc3)n2)n[nH]1 [tozasertib]
Procedure, shortened: as §1

[4] = compound: Cc1cc(SCc2sc(-c3ccc(C(F)(F)F)cc3)nc2C)ccc1OCC(=O)O
Procedure, shortened: as §1

doramapimod = compound: Cc1ccc(-n2nc(C(C)(C)C)cc2NC(=O)Nc2ccc(OCCN3CCOCC3)c3ccccc23)cc1 [doramapimod]
Procedure, shortened: as §1

ispinesib = compound: Cc1ccc(C(=O)N(CCCN)[C@@H](c2nc3cc(Cl)ccc3c(=O)n2Cc2ccccc2)C(C)C)cc1 [ispinesib]
Procedure, shortened: as §1

bafetinib = compound: Cc1ccc(NC(=O)c2ccc(CN3CC[C@H](N(C)C)C3)c(C(F)(F)F)c2)cc1Nc1nccc(-c2cncnc2)n1 [bafetinib]
Procedure, shortened: as §1

[5] = compound: Cc1cccc(CC(=O)N2CCc3c2ccc(-c2cn(C)c4ncnc(N)c24)c3F)n1
Procedure, shortened: as §1

nilotinib = compound: Cc1cn(-c2cc(NC(=O)c3ccc(C)c(Nc4nccc(-c5cccnc5)n4)c3)cc(C(F)(F)F)c2)cn1 [nilotinib]
Procedure, shortened: as §1

[6] = compound: Cc1nc(Nc2n[nH]c3c2CN(C(=O)N[C@H](CN(C)C)c2ccccc2)C3(C)C)c2sccc2n1
Procedure, shortened: as §1

dasatinib = compound: Cc1nc(Nc2ncc(C(=O)Nc3c(C)cccc3Cl)s2)cc(N2CCN(CCO)CC2)n1 [dasatinib]
Procedure, shortened: as §1

[7] = compound: Cc1ncc(-c2ccnc(Nc3ccc(S(C)(=O)=O)cc3)n2)n1C(C)C
Procedure, shortened: as §1

[8] = compound: Cn1cc(-c2ccc3c(c2)CCN3C(=O)Cc2cccc(C(F)(F)F)c2)c2c(N)ncnc21
Procedure, shortened: as §1

[9] = compound: Cn1cc(-c2ccc3nnc(C(F)(F)c4ccc5ncccc5c4)n3n2)cn1
Procedure, shortened: as §1

tipifarnib = compound: Cn1cncc1[C@@](N)(c1ccc(Cl)cc1)c1ccc2c(c1)c(-c1cccc(Cl)c1)cc(=O)n2C [tipifarnib]
Procedure, shortened: as §1

mubritinib = compound: FC(F)(F)c1ccc(/C=C/c2nc(COc3ccc(CCCCn4ccnn4)cc3)co2)cc1 [mubritinib]
Procedure, shortened: as §1

Measured: log2 fold change

MYH9 (UniProt P35579)
inactive: [1] -0.03 | crizotinib -0.031 | [2] 0.055 | [3] -0.107 | duvelisib -0.021 | gandotinib -0.114 | tozasertib 0.019 | [4] 0.002 | doramapimod 0.039 | ispinesib 0.078 | bafetinib -0.011 | [5] 0.1 | nilotinib -0.002 | [6] -0.001 | dasatinib -0.05 | [7] -0.002 | [8] 0.059 | [9] -0.004 | tipifarnib -0.043 | mubritinib 0.036

MRPS30 (UniProt Q9NP92)
inactive: [1] 0.021 | crizotinib 0.023 | [2] -0.155 | [3] 0.254 | duvelisib -0.087 | gandotinib 0.077 | tozasertib 0.001 | [4] 0.1 | doramapimod 0.085 | ispinesib -0.205 | bafetinib 0.272 | [5] 0.114 | nilotinib -0.073 | [6] 0.095 | dasatinib 0.015 | [7] 0.036 | [8] -0.125 | [9] -0.08 | tipifarnib 0.147 | mubritinib 0.071

MYCBP2 (UniProt O75592)
inactive: [1] 0.057 | crizotinib 0.107 | [2] -0.155 | [3] 0.017 | duvelisib -0.454 | gandotinib 0.089 | tozasertib -0.045 | [4] -0.03 | doramapimod 0.225 | ispinesib -0.359 | bafetinib -0.388 | [5] -0.359 | nilotinib -0.037 | [6] 0.047 | dasatinib -0.311 | [7] 0.282 | [8] 0.109 | [9] -0.093 | tipifarnib -0.106 | mubritinib -0.176

MRTFA (UniProt Q969V6)
inactive: [1] 0.046 | crizotinib -0.203 | [2] 0.103 | [3] -0.006 | duvelisib 0.06 | gandotinib 0.021 | tozasertib 0.064 | [4] 0.033 | doramapimod 0.017 | ispinesib 0.084 | bafetinib 0.003 | [5] -0.078 | nilotinib -0.029 | [6] -0.065 | dasatinib -0.071 | [7] -0.086 | [8] -0.113 | [9] -0.006 | tipifarnib -0.116 | mubritinib -0.05

MRPL58 (UniProt Q14197)
inactive: [1] 0.016 | crizotinib -0.023 | [2] -0.065 | [3] 0.154 | duvelisib -0.063 | gandotinib 0.063 | tozasertib 0.067 | [4] 0.087 | doramapimod 0.131 | ispinesib -0.127 | bafetinib 0.129 | [5] 0.021 | nilotinib -0.058 | [6] 0.152 | dasatinib 0.005 | [7] -0.034 | [8] -0.086 | [9] 0.002 | tipifarnib 0.077 | mubritinib 0.038

MTDH (UniProt Q86UE4)
inactive: [1] -0.164 | crizotinib 0.031 | [2] -0.53 | [3] 0.314 | duvelisib -0.125 | gandotinib 0.347 | tozasertib -0.013 | [4] -0.016 | doramapimod 0.228 | ispinesib -0.24 | bafetinib 0.182 | [5] -0.028 | nilotinib 0.016 | [6] 0.138 | dasatinib 0.218 | [7] -0.03 | [8] -0.259 | [9] -0.22 | tipifarnib 0.161 | mubritinib -0.134

MUCL1 (UniProt Q96DR8)
inactive: [1] -0.328 | crizotinib 0.604 | [2] 0.06 | [3] -0.022 | duvelisib 0.241 | gandotinib 0.468 | tozasertib 0.154 | [4] -0.029 | doramapimod -0.368 | ispinesib 0.309 | bafetinib -0.085 | [5] -0.463 | nilotinib -0.197 | [6] 0.154 | dasatinib 0.167 | [7] 0.889 | [8] 0.347 | [9] 0.361 | tipifarnib -0.186 | mubritinib 0.387

MTR (UniProt Q99707)
inactive: [1] 0.063 | crizotinib -0.079 | [2] -0.095 | [3] 0.227 | duvelisib -0.051 | gandotinib -0.018 | tozasertib 0.027 | [4] 0.067 | doramapimod 0.116 | ispinesib -0.094 | bafetinib -0.003 | [5] -0.002 | nilotinib -0.046 | [6] -0.107 | dasatinib -0.025 | [7] 0.043 | [8] -0.036 | [9] -0.024 | tipifarnib -0.029 | mubritinib -0.064

MTMR1 (UniProt Q13613)
inactive: [1] -0.092 | crizotinib -0.213 | [2] 0.11 | [3] 0.083 | duvelisib -0.061 | gandotinib -0.258 | tozasertib 0.041 | [4] 0.035 | doramapimod 0.125 | ispinesib -0.072 | bafetinib 0.006 | [5] 0.059 | dasatinib -0.014 | [8] 0 | [9] -0.061 | tipifarnib -0.1 | mubritinib 0.021

2 consecutive entries from above, for reference:
MTR (UniProt Q99707)
inactive: [1] 0.063 | crizotinib -0.079 | [2] -0.095 | [3] 0.227 | duvelisib -0.051 | gandotinib -0.018 | tozasertib 0.027 | [4] 0.067 | doramapimod 0.116 | ispinesib -0.094 | bafetinib -0.003 | [5] -0.002 | nilotinib -0.046 | [6] -0.107 | dasatinib -0.025 | [7] 0.043 | [8] -0.036 | [9] -0.024 | tipifarnib -0.029 | mubritinib -0.064

MTMR1 (UniProt Q13613)
inactive: [1] -0.092 | crizotinib -0.213 | [2] 0.11 | [3] 0.083 | duvelisib -0.061 | gandotinib -0.258 | tozasertib 0.041 | [4] 0.035 | doramapimod 0.125 | ispinesib -0.072 | bafetinib 0.006 | [5] 0.059 | dasatinib -0.014 | [8] 0 | [9] -0.061 | tipifarnib -0.1 | mubritinib 0.021

Later entries.

MRPL9 (UniProt Q9BYD2)
inactive: [1] 0.078 | crizotinib -0.057 | [2] -0.093 | [3] 0.223 | duvelisib -0.08 | gandotinib 0.103 | tozasertib 0.047 | [4] 0.087 | doramapimod 0.014 | ispinesib -0.133 | bafetinib 0.259 | [5] 0.021 | nilotinib -0.044 | [6] 0.104 | dasatinib 0.006 | [7] 0.007 | [8] -0.098 | [9] -0.068 | tipifarnib 0.081 | mubritinib 0.077

MTSS2 (UniProt Q765P7)
inactive: [1] 0.026 | crizotinib -0.044 | [2] 0.015 | [3] 0.004 | duvelisib -0.014 | gandotinib -0.127 | tozasertib -0.081 | [4] -0.031 | doramapimod 0.117 | ispinesib 0.032 | bafetinib -0.023 | [5] -0.036 | nilotinib 0.044 | [6] -0.058 | dasatinib -0.002 | [7] -0.132 | [8] 0.061 | [9] -0.023 | tipifarnib 0.037 | mubritinib 0.105

MTHFD1L (UniProt Q6UB35)
inactive: [1] 0.023 | crizotinib -0.015 | [2] 0.128 | [3] -0.025 | duvelisib 0.082 | gandotinib -0.027 | tozasertib -0.044 | [4] 0.04 | doramapimod -0.011 | ispinesib 0.031 | bafetinib -0.004 | [5] 0.025 | nilotinib -0.014 | [6] -0.012 | dasatinib -0.073 | [7] -0.013 | [8] 0.064 | [9] 0.028 | tipifarnib -0.032 | mubritinib 0.064

MTA1 (UniProt Q13330)
inactive: [1] -0.018 | crizotinib -0.016 | [2] 0.038 | [3] -0.104 | duvelisib -0.012 | gandotinib 0.038 | tozasertib 0.175 | [4] 0.076 | doramapimod -0.038 | ispinesib -0.11 | bafetinib -0.05 | [5] 0.108 | nilotinib -0.041 | [6] -0.064 | dasatinib -0.085 | [7] -0.013 | [8] -0.017 | [9] 0.057 | tipifarnib 0.062 | mubritinib 0.014

MRPS34 (UniProt P82930)
inactive: [1] 0.032 | crizotinib -0.059 | [2] -0.009 | [3] 0.148 | duvelisib 0.002 | gandotinib -0.034 | tozasertib 0.034 | [4] 0.097 | doramapimod 0.064 | ispinesib -0.183 | bafetinib 0.229 | [5] 0.156 | nilotinib -0.093 | [6] 0.044 | dasatinib -0.041 | [7] -0.057 | [8] -0.003 | [9] -0.152 | tipifarnib -0.07 | mubritinib 0.082

MRTO4 (UniProt Q9UKD2)
inactive: [1] -0.14 | crizotinib 0.005 | [2] -0.37 | [3] 0.026 | duvelisib -0.138 | gandotinib 0.241 | tozasertib 0.147 | [4] 0.043 | doramapimod 0.161 | ispinesib -0.101 | bafetinib 0.255 | [5] -0.033 | nilotinib -0.043 | [6] 0.041 | dasatinib 0.052 | [7] -0.012 | [8] -0.157 | [9] -0.186 | tipifarnib 0.085 | mubritinib -0.197

MYADM (UniProt Q96S97)
inactive: [1] -0.068 | crizotinib -0.098 | [2] -0.007 | [3] 0.05 | duvelisib 0.065 | gandotinib 0.133 | tozasertib 0.051 | [4] 0.115 | doramapimod 0.026 | ispinesib -0.22 | bafetinib 0.105 | [5] 0.262 | nilotinib 0.112 | [6] -0.021 | dasatinib 0.022 | [7] 0.043 | [8] -0.014 | [9] 0.104 | tipifarnib 0.053 | mubritinib -0.122
